This note sets out measurements from article PMC9677696.

Amino acid sequences for entries named in this document (tags omitted).
UniProt Q9H9B1: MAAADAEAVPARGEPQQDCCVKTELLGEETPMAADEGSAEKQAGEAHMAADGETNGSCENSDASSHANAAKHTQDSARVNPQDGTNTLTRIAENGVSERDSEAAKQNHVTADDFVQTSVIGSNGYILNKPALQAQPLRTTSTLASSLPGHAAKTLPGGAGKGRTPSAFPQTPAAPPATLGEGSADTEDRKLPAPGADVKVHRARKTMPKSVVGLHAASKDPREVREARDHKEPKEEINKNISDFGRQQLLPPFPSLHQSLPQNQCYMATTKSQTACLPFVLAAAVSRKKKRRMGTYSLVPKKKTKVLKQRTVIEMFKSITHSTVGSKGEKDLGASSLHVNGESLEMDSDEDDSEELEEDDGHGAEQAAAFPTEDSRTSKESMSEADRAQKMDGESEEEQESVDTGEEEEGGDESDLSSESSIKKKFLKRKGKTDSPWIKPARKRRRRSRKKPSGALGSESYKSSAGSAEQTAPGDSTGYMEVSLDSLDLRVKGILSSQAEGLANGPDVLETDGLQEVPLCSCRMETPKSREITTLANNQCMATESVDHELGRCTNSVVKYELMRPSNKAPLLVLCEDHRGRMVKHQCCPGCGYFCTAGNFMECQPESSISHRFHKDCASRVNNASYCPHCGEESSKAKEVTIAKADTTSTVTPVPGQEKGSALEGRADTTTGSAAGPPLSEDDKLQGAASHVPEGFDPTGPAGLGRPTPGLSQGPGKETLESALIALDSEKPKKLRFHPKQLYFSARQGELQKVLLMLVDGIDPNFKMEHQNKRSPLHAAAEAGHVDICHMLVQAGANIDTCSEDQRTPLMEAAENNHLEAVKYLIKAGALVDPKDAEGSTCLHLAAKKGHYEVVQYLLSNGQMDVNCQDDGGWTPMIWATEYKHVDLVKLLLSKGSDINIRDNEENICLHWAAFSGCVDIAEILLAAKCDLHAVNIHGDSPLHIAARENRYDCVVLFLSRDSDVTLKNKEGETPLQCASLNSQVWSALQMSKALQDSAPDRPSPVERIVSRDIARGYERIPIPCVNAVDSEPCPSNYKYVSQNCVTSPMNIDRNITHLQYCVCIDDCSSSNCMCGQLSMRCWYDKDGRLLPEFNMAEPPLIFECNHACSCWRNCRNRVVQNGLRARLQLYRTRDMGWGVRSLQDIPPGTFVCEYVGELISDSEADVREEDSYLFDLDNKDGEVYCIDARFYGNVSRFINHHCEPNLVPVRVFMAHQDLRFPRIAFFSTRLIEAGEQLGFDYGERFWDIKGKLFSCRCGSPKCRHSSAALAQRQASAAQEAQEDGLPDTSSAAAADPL
UniProt Q96KQ7: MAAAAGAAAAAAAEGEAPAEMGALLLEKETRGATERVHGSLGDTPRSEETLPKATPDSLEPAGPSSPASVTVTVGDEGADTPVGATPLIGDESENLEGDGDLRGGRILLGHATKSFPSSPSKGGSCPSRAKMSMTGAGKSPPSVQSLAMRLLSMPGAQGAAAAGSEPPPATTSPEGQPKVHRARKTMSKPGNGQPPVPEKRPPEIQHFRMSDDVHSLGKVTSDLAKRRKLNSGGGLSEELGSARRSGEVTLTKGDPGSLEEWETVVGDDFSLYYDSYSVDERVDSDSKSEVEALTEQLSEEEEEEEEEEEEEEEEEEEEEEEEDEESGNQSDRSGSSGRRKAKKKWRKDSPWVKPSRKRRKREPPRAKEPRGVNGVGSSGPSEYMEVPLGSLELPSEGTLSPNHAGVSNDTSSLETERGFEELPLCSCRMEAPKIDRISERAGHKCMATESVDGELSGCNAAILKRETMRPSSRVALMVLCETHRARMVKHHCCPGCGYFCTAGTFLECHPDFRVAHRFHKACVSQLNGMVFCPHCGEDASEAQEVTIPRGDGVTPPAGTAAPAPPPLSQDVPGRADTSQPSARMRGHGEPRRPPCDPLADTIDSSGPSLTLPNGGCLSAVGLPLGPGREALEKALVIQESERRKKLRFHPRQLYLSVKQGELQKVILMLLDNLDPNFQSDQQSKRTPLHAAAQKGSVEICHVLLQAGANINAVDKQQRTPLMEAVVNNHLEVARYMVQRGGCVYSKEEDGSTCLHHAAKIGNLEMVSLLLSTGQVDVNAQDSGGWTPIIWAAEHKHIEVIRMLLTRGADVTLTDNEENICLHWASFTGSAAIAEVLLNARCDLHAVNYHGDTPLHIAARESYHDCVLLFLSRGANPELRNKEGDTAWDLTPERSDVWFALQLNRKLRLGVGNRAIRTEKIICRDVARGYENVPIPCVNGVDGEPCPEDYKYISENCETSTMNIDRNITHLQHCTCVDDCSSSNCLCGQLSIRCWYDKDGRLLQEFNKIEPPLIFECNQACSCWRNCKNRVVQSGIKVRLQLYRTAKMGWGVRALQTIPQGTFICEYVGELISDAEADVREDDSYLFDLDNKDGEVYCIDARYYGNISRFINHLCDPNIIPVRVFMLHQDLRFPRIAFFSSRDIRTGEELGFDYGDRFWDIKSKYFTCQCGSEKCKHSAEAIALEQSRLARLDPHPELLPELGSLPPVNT

Results are given in words; binding and its absence hold for the method and conditions named. Some entries that bind do so weakly or less than the wild type. For some of these results: Where a sequence is shown, tags or fusion partners need not be part of it.

The target in experiment [1] is T1, H3K23M peptide (biotinylated histone H3 peptide with lysine 23 to methionine).
T1 sequence (peptide, biotin at the C-terminus): KQLASMAARKSAPATGGIK
In words: pull-down; 1 μg biotinylated histone peptide on M280 streptavidin Dynabeads; 2 μg EHMT2/G9a or 5 μg EHMT1/GLP incubated overnight at 4 °C; washes with 300 mM KCl, 0.2% Triton-X 100, 1 mM PMSF; bound enzyme detected by anti-Flag or anti-GST western blot; both purified.

For experiment [2], the target named is H3K9M peptide (biotinylated histone H3 peptide with lysine 9 to methionine). The experiment is described as above.

Consider “recombinant EHMT1/GLP (euchromatic histone methyltransferase 1), GST-tagged (from UniProt Q9H9B1 1-1298) (enzyme)”, for which the binding entry in experiment [1] was “no binding (tested: 5 μg of EHMT1/GLP)”; in experiment [2] it was “binds”.

As for “recombinant EHMT2/G9a (euchromatic histone methyltransferase 2), Flag-tagged (from UniProt Q96KQ7 1-1210) (enzyme)”, the binding result in experiment [1] and in experiment [2] was “binds” throughout.
